Results published in the supplement of paper PMC10849652.
This is one part of the list.

The chains behind the UniProt entries cited, without tags or fusion partners. Where a name states a change or a piece, a line headed by the entry shows the natural chain unless it says otherwise.
UniProt Q8N5L8: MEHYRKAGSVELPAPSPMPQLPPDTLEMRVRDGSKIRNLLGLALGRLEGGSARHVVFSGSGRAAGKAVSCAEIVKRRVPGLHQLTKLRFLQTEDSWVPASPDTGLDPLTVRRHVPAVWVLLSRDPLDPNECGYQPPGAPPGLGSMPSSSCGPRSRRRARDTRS
UniProt P78346: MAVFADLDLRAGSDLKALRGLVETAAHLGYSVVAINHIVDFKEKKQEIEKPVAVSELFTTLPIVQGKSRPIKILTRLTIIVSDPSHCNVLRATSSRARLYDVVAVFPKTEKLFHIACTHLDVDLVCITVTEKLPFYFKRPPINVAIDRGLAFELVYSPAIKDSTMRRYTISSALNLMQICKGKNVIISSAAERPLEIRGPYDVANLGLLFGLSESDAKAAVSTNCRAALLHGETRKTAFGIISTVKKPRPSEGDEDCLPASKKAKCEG
UniProt P04844: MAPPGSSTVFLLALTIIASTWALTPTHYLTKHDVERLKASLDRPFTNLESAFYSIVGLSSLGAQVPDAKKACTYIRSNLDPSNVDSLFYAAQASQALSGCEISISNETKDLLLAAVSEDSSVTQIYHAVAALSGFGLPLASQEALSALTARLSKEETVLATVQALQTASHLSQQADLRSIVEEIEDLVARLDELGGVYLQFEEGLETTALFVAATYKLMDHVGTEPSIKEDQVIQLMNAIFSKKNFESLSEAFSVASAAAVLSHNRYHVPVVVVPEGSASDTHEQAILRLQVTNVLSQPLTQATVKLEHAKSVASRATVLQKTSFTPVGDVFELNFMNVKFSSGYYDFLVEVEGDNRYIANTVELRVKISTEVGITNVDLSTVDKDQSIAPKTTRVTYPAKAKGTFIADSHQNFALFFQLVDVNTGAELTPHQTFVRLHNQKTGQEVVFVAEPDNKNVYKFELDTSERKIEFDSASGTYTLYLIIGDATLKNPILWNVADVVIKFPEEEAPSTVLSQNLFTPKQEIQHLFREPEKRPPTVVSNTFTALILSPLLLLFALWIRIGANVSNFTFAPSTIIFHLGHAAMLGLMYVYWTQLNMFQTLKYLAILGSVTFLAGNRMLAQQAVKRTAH
UniProt Q9H4A4: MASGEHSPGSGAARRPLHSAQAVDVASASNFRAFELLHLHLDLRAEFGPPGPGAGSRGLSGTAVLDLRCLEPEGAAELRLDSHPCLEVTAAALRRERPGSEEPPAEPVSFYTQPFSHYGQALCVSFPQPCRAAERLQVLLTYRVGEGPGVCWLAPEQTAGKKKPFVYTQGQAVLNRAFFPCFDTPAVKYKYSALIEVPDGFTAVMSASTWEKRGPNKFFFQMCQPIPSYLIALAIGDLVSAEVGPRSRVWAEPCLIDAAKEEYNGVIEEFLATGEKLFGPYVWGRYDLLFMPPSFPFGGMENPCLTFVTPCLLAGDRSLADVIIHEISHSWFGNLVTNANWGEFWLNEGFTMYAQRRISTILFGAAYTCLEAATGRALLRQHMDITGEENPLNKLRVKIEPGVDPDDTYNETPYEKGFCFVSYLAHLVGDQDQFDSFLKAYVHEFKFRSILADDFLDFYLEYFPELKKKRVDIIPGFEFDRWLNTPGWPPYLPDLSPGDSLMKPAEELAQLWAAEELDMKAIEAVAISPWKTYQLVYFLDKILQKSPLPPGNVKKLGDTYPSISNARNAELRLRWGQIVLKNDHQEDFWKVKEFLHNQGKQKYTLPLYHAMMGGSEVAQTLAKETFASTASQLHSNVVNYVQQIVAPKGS
UniProt P10301: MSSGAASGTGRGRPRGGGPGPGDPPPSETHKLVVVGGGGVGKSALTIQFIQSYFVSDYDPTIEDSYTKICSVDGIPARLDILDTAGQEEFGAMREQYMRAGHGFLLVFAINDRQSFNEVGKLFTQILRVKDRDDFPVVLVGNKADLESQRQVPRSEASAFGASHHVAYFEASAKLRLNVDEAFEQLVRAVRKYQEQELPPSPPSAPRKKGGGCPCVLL
UniProt P05387, whole entry, looked up: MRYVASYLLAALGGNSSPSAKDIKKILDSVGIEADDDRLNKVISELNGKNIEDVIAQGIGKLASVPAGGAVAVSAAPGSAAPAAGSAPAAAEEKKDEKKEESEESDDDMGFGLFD
UniProt P05386, whole entry, looked up: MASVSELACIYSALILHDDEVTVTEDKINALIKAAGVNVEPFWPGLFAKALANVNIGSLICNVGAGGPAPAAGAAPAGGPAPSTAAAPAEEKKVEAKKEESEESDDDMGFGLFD

Experiments:
Test in all cases: log2 fold change, soluble protein after heating vs DMSO (PISA); higher = thermal stabilisation; K562 cells, 10 uM, 30 min; active = over 0.2 and 3.5 SD of the protein, either way, in both replicates (recomputed)
bafetinib = compound: Cc1ccc(NC(=O)c2ccc(CN3CC[C@H](N(C)C)C3)c(C(F)(F)F)c2)cc1Nc1nccc(-c2cncnc2)n1 [bafetinib]
Procedure, shortened: (§1)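 K562 cells (2×10^6 cells/mL) were treated with 10 μM compound for 30 min, and aliquots were heated for 3 min over 48°C-58°C. Pooled aliquots were extracted in PBS with 0.5% NP-40 at 4°C, and the supernatant after 21,000xg for 90 min was measured by TMTpro 16plex LC-MS/MS with channel sums equalised. Reported thermal stability, relative to control samples and from duplicates, is a log2 fold change.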

[1] = compound: Cc1cccc(CC(=O)N2CCc3c2ccc(-c2cn(C)c4ncnc(N)c24)c3F)n1
Procedure, shortened: as §1

nilotinib = compound: Cc1cn(-c2cc(NC(=O)c3ccc(C)c(Nc4nccc(-c5cccnc5)n4)c3)cc(C(F)(F)F)c2)cn1 [nilotinib]
Procedure, shortened: as §1

[2] = compound: Cc1nc(Nc2n[nH]c3c2CN(C(=O)N[C@H](CN(C)C)c2ccccc2)C3(C)C)c2sccc2n1
Procedure, shortened: as §1

dasatinib = compound: Cc1nc(Nc2ncc(C(=O)Nc3c(C)cccc3Cl)s2)cc(N2CCN(CCO)CC2)n1 [dasatinib]
Procedure, shortened: as §1

[3] = compound: Cc1ncc(-c2ccnc(Nc3ccc(S(C)(=O)=O)cc3)n2)n1C(C)C
Procedure, shortened: as §1

[4] = compound: Cn1cc(-c2ccc3c(c2)CCN3C(=O)Cc2cccc(C(F)(F)F)c2)c2c(N)ncnc21
Procedure, shortened: as §1

[5] = compound: Cn1cc(-c2ccc3nnc(C(F)(F)c4ccc5ncccc5c4)n3n2)cn1
Procedure, shortened: as §1

tipifarnib = compound: Cn1cncc1[C@@](N)(c1ccc(Cl)cc1)c1ccc2c(c1)c(-c1cccc(Cl)c1)cc(=O)n2C [tipifarnib]
Procedure, shortened: as §1

mubritinib = compound: FC(F)(F)c1ccc(/C=C/c2nc(COc3ccc(CCCCn4ccnn4)cc3)co2)cc1 [mubritinib]
Procedure, shortened: as §1

Measured: log2 fold change

RPS17 (UniProt P08708)
inactive: bafetinib 0.194 | [1] -0.018 | nilotinib 0.039 | [2] 0.123 | dasatinib 0.121 | [3] -0.007 | [4] -0.201 | [5] -0.032 | tipifarnib 0.06 | mubritinib -0.076

RPL36 (UniProt Q9Y3U8)
inactive: bafetinib 0.511 | [1] 0.02 | nilotinib -0.053 | [2] 0.225 | dasatinib 0.311 | [3] -0.055 | [4] -0.468 | [5] -0.283 | tipifarnib 0.397 | mubritinib -0.304

RPP25L (UniProt Q8N5L8)
inactive: bafetinib 0.143 | [1] -0.04 | nilotinib 0.044 | [2] -0.087 | dasatinib 0.09 | [3] -0.031 | [4] -0.058 | [5] 0.004 | tipifarnib 0.044 | mubritinib -0.004

RPL27A (UniProt P46776)
inactive: bafetinib 0.39 | [1] -0.003 | nilotinib 0.073 | [2] 0.215 | dasatinib 0.295 | [3] -0.015 | [4] -0.542 | [5] -0.233 | tipifarnib 0.32 | mubritinib -0.271

RPL19 (UniProt P84098)
inactive: bafetinib 0.365 | [1] 0 | nilotinib 0.033 | [2] 0.177 | dasatinib 0.129 | [3] -0.024 | [4] -0.304 | [5] -0.212 | tipifarnib 0.237 | mubritinib -0.206

RPL18 (UniProt Q07020)
inactive: bafetinib 0.574 | [1] -0.001 | nilotinib 0.021 | [2] 0.236 | dasatinib 0.382 | [3] -0.056 | [4] -0.694 | [5] -0.347 | tipifarnib 0.502 | mubritinib -0.428

RPS14 (UniProt P62263)
inactive: bafetinib 0.265 | [1] -0.061 | nilotinib 0.029 | [2] 0.184 | dasatinib -0.011 | [3] -0.047 | [4] -0.081 | [5] -0.091 | tipifarnib 0.07 | mubritinib -0.05

RPL17 isoform 3 (UniProt P18621)
inactive: bafetinib 0.148 | [1] -0.057 | nilotinib 0.054 | [2] 0.158 | dasatinib 0.188 | [3] -0.025 | [4] -0.38 | [5] -0.144 | tipifarnib 0.155 | mubritinib -0.182

RPS27L (UniProt Q71UM5)
inactive: bafetinib 0.048 | [1] -0.019 | nilotinib 0.02 | [2] 0.137 | dasatinib -0.015 | [3] -0.021 | [4] -0.039 | [5] -0.042 | tipifarnib -0.039 | mubritinib -0.014

RPS6 (UniProt P62753)
inactive: bafetinib 0.388 | [1] -0.002 | nilotinib 0.078 | [2] 0.211 | dasatinib 0.124 | [3] -0.045 | [4] -0.233 | [5] -0.14 | tipifarnib 0.002 | mubritinib -0.218

RPLP0 (UniProt P05388)
inactive: bafetinib 0.513 | [1] 0.013 | nilotinib -0.019 | [2] 0.218 | dasatinib 0.347 | [3] -0.033 | [4] -0.579 | [5] -0.23 | tipifarnib 0.424 | mubritinib -0.338

RPP30 isoform 2 (UniProt P78346)
inactive: bafetinib -0.039 | [1] -0.024 | nilotinib 0.039 | [2] -0.017 | dasatinib 0.135 | [3] 0.009 | [4] -0.046 | [5] -0.022 | tipifarnib 0.036 | mubritinib 0.016

RPL27 (UniProt P61353)
inactive: bafetinib 0.491 | [1] 0 | nilotinib 0.059 | [2] 0.223 | dasatinib 0.277 | [3] -0.015 | [4] -0.53 | [5] -0.177 | tipifarnib 0.176 | mubritinib -0.301

RPN2 (UniProt P04844)
inactive: bafetinib 0 | [1] 0.026 | nilotinib -0.046 | [2] 0.002 | dasatinib 0.003 | [3] -0.046 | [4] -0.033 | [5] 0.014 | tipifarnib -0.02 | mubritinib -0.015

RPS7 (UniProt P62081)
inactive: bafetinib 0.27 | [1] 0 | nilotinib 0.073 | [2] 0.171 | dasatinib 0.093 | [3] -0.029 | [4] -0.182 | [5] -0.057 | tipifarnib 0.131 | mubritinib -0.158

RPL34 (UniProt P49207)
inactive: bafetinib 0.569 | [1] 0.001 | nilotinib 0.046 | [2] 0.284 | dasatinib 0.336 | [3] -0.038 | [4] -0.586 | [5] -0.298 | tipifarnib 0.394 | mubritinib -0.389

RPL7 (UniProt P18124)
inactive: bafetinib 0.596 | [1] -0.001 | nilotinib 0.002 | [2] 0.307 | dasatinib 0.303 | [3] -0.029 | [4] -0.538 | [5] -0.262 | tipifarnib 0.452 | mubritinib -0.384

RPL22 (UniProt P35268)
inactive: bafetinib 0.232 | [1] -0.002 | nilotinib -0.009 | [2] 0.182 | dasatinib 0.115 | [3] -0.017 | [4] -0.111 | [5] -0.078 | tipifarnib 0.018 | mubritinib -0.101

RPL10 (UniProt P27635)
inactive: bafetinib 0.446 | [1] -0.005 | nilotinib -0.013 | [2] 0.232 | dasatinib 0.155 | [3] -0.038 | [4] -0.414 | [5] -0.178 | tipifarnib 0.189 | mubritinib -0.281

Reprinted at random: two entries already listed, in no set order.
RPL10 (UniProt P27635)
inactive: bafetinib 0.446 | [1] -0.005 | nilotinib -0.013 | [2] 0.232 | dasatinib 0.155 | [3] -0.038 | [4] -0.414 | [5] -0.178 | tipifarnib 0.189 | mubritinib -0.281

RPS7 (UniProt P62081)
inactive: bafetinib 0.27 | [1] 0 | nilotinib 0.073 | [2] 0.171 | dasatinib 0.093 | [3] -0.029 | [4] -0.182 | [5] -0.057 | tipifarnib 0.131 | mubritinib -0.158

The results go on:

RNPEP (UniProt Q9H4A4)
inactive: bafetinib 0.003 | [1] 0.035 | nilotinib -0.004 | [2] -0.041 | dasatinib -0.134 | [3] 0.025 | [4] 0.012 | [5] 0.043 | tipifarnib -0.116 | mubritinib 0.051

RPS3A (UniProt P61247)
inactive: bafetinib 0.243 | [1] -0.031 | nilotinib 0 | [2] 0.201 | dasatinib 0.099 | [3] -0.033 | [4] -0.127 | [5] -0.045 | tipifarnib 0.096 | mubritinib -0.058

RRAS (UniProt P10301)
inactive: bafetinib 0.008 | [1] -0.004 | nilotinib 0.019 | [2] -0.071 | dasatinib 0.047 | [3] -0.018 | [4] 0.042 | [5] 0.037 | tipifarnib 0 | mubritinib 0.034

RPS13 (UniProt P62277)
inactive: bafetinib 0.342 | [1] 0 | nilotinib 0.017 | [2] 0.221 | dasatinib 0.088 | [3] -0.051 | [4] -0.237 | [5] -0.089 | tipifarnib 0.204 | mubritinib -0.184

RPL4 (UniProt P36578)
inactive: bafetinib 0.611 | [1] -0.001 | nilotinib -0.004 | [2] 0.227 | dasatinib 0.261 | [3] -0.045 | [4] -0.609 | [5] -0.304 | tipifarnib 0.427 | mubritinib -0.327

RPLP2 (UniProt P05387)
inactive: bafetinib 0.346 | [1] -0.001 | nilotinib 0.002 | [2] 0.206 | dasatinib 0.138 | [3] -0.048 | [4] -0.417 | [5] -0.203 | tipifarnib 0.242 | mubritinib -0.272

RPS4X (UniProt P62701)
inactive: bafetinib 0.332 | [1] 0 | nilotinib 0.051 | [2] 0.206 | dasatinib 0.061 | [3] -0.048 | [4] -0.251 | [5] -0.079 | tipifarnib 0.112 | mubritinib -0.105

RPLP1 (UniProt P05386)
inactive: bafetinib 0.39 | [1] -0.09 | nilotinib 0.104 | [2] 0.191 | dasatinib 0.216 | [3] -0.08 | [4] -0.385 | [5] -0.155 | tipifarnib 0.525 | mubritinib -0.268

RPL38 (UniProt P63173)
inactive: bafetinib 0.089 | [1] 0.01 | nilotinib 0.026 | [2] 0.155 | dasatinib 0.057 | [3] -0.003 | [4] -0.023 | [5] -0.022 | tipifarnib -0.021 | mubritinib 0.006

RPSA (UniProt P08865)
inactive: bafetinib 0.081 | [1] -0.044 | nilotinib 0.005 | [2] 0.1 | dasatinib 0.054 | [3] -0.042 | [4] -0.023 | [5] 0.005 | tipifarnib 0.013 | mubritinib 0

RPS12 (UniProt P25398)
inactive: bafetinib 0.112 | [1] 0.006 | nilotinib 0.002 | [2] 0.126 | dasatinib 0.08 | [3] -0.012 | [4] -0.013 | [5] -0.004 | tipifarnib 0.049 | mubritinib -0.08
